In paper PMC12431657, “Discovery and mechanistic insights of dibenzoylmethane as a broad spectrum inhibitor of coronavirus” (PLOS Pathogens, 2025):
Where a name gives a salt, the structure may show the parent alone. Read-outs that look alike come from different tables or passages of the source. The campaign covered roughly 3,300 compounds. About 60 (2%) showed an effect of 50% or more. Some of the results follow.

Tested on: HCoV-OC43
Design: species or system RD; HTS, protection from HCoV-OC43 induced cell death, luminescent cell viability (CellCounting-Lite 2.0), inhibition rate
Details: 24 h post infection, 1 h compound pre-incubation, 10 µM, inhibitor

| SMILES | OC43 Inhibition rate [%] | OC43 Inhibition rate (OC43 Inhibition rate, 24 h) [%] |
| --- | --- | --- |
| OCC1(O)COc2cc(O)ccc2-c2cc(O)c(O)cc2C1 (centres unmarked) [Protosappanin B] | 0.6 | – |
| Nc1[nH]cnc2ncnc1-2 [Adenine (hemisulfate)] | – | 0.6 |
| CC(=O)O[C@@H](C[C@@H](C)C1=C2C[C@H](O)[C@H]3[C@@]4(C)CCC(=O)C(C)(C)[C@@H]4CC[C@]3(C)[C@@]2(C)CC1)[C@H]1OC1(C)C [Alisol B 23-acetate] | 0.5 | – |
| NCc1ccccc1O [o-Hydroxybenzylamine] | 0.7 | – |
| O=C(O)Cc1ccccc1O [2-Hydroxyphenylacetic acid] | 1.3 | – |
| COc1cc(OC)c2c(=O)c(OC)c(-c3ccc(OC)c(OC)c3)oc2c1 [3,5,7,3′,4′-Pentamethoxyflavone] | 2.1 | – |
| C=C[C@]1(C)C=C2CC[C@H]3[C@@](C)(CCC[C@@]3(C)C(=O)O)[C@@H]2CC1 [Continentalic acid] | -1.2 | – |
| CC(C)=C1C/C=C(\C)CC/C=C(\C)CC1=O [Germacrone] | 1.7 | – |
| O=c1c(O[C@@H]2O[C@H](CO)[C@H](O)[C@H](O)[C@H]2O[C@@H]2O[C@H](CO)[C@@H](O)[C@H](O)[C@H]2O)c(-c2ccc(O)cc2)oc2cc(O)cc(O)c12 [Panasenoside] | 0.4 | – |
| COc1ccc(/C=C\c2cc(OC)c(OC)c(OC)c2)cc1OP(=O)(O)O [Fosbretabulin (disodium)] | -0.2 | – |
| CCCCCCC/C=C/C(=O)CCc1ccc(O)c(OC)c1 [[8]-Shogaol] | 0.1 | – |
| CC1=C(C=O)C(C)(C)CC=C1 [Safranal] | 1 | – |
| C[C@@H]1O[C@@H](OC[C@H]2O[C@@H](Oc3c(-c4ccc(O)cc4)oc4cc(O)cc(O)c4c3=O)[C@H](O)[C@@H](O)[C@H]2O)[C@H](O)[C@H](O)[C@H]1O [Biorobin] | 0.5 | – |
| C[C@@H]1O[C@@H](O[C@@H]2[C@@H](O)[C@H](OCCc3ccc(O)c(O)c3)O[C@H](CO)[C@H]2OC(=O)/C=C/c2ccc(O)c(O)c2)[C@H](O)[C@H](O)[C@H]1O [Verbascoside] | 0.3 | – |
| CC(C)(CO)[C@@H](O)C(=O)NCCCO [D-Panthenol] | 1.4 | – |
| O=C(O[C@@H]1Cc2c(O)cc(O)cc2O[C@@H]1c1cc(O)c(O)c(O)c1)c1cc(O)c(O)c(O)c1 [(-)-Epigallocatechin Gallate] | -0.4 | – |
| CC[C@@]1(O)C(=O)OCc2c1cc1n(c2=O)Cc2cc3cc(OC)ccc3nc2-1 [10-Methoxycamptothecin] | -2.1 | – |
| C/C1=C\C[C@]2(C(C)C)CC[C@@](C)(O2)[C@@H](O)CC/C(C)=C/CC1 [Incensole] | 1.2 | – |
| N[C@@H](CCS)C(=O)O [L-Homocysteine] | 2.1 | – |
| C=CCc1ccc(O)c(-c2ccc(O)c(CC=C)c2)c1 [Honokiol] | 32.2 | – |
| COc1cc([C@@H]2c3cc4c(cc3[C@H](O)[C@H]3COC(=O)[C@H]23)OCO4)cc(OC)c1OC [Podofilox] | -3.9 | – |

| SMILES | OC43 Inhibition rate [%] | OC43 Inhibition rate (OC43 Inhibition rate, 24 h) [%] |
| --- | --- | --- |
| COc1cc(OC)c(C(=O)O)cc1OC [2,4,5-Trimethoxybenzoic acid] | -0.1 | – |
| CCOC(=O)/C=C/c1ccc(O)c(OC)c1 [Ethyl ferulate] | 1.1 | – |
| O=c1c(-c2ccc(O)cc2)coc2cc(O)cc(O)c12 [Genistein] | 6.8 | – |
| N[C@H](Cc1ccccc1)C(=O)O [D-Phenylalanine] | -0.2 | – |
| CO[C@H]1[C@H](O)[C@H](O[C@H]2CC[C@@]3(C)[C@H](CC[C@@H]4[C@@H]3CC[C@]3(C)[C@@H](C5=CC(=O)OC5)CC[C@]43O)C2)O[C@@H](C)[C@@H]1O [Neriifolin] | -1.8 | – |
| CO[C@@H]1[C@H](O)[C@@H](CO)O[C@H]1n1cnc2c(N)ncnc21 [2'-O-Methyladenosine] | 11.9 | – |
| CC(=O)OC[C@H](Cc1ccccc1)NC(=O)[C@H](Cc1ccccc1)NC(=O)c1ccccc1 [Aurantiamide acetate] | 0.3 | – |
| Nc1nc2c([nH]c(=O)n2[C@H]2C[C@H](O)[C@@H](CO)O2)c(=O)[nH]1 [8-Hydroxy-2'-deoxyguanosine] | -0.5 | – |
| COc1cc(C=O)ccc1O [Vanillin] | 0.9 | – |
| COc1cc(COC(=O)CCCC/C=C/C(C)C)ccc1O [Capsiate] | -0.6 | – |
| CNc1nc2c(ncn2[C@@H]2O[C@H](CO)[C@@H](O)[C@H]2O)c(=O)[nH]1 [N2-Methylguanosine] | -0.3 | – |
| O=C1C=C2C=C[C@@H](O)[C@H](O)[C@H]2O1 [Griffonilide] | -0.1 | – |
| COc1cc2c(=O)c(-c3ccc(O)cc3)coc2cc1O[C@@H]1O[C@H](CO)[C@@H](O)[C@H](O)[C@H]1O [Glycitin] | 1.5 | – |
| COc1cc(/C=C/C(=O)OC[C@H]2O[C@@H](O[C@@H]3[C@@H](O)[C@H](O)[C@@H](CO)O[C@H]3c3c(OC)cc4oc(-c5ccc(O)cc5)cc(=O)c4c3O)[C@H](O)[C@@H](O)[C@@H]2O)ccc1O [6‴-Feruloylspinosin] | 0.6 | – |
| C=C1CC[C@@H]2[C@](C)(CO)[C@H](O)CC[C@@]2(C)[C@@H]1/C=C/C1=CCOC1=O [14-Deoxy-11,12-didehydroandrographolide] | -1.3 | – |
| COc1ccc(/C=C/c2cc(OC)cc(=O)o2)cc1 [Yangonin] | 0.5 | – |
| COc1ccc(/C=C/C(=O)O)cc1OC [3,4-Dimethoxycinnamic acid] | – | 1.2 |
| c1cncnc1 [Pyrimidine] | -0.5 | – |
| CC(=O)c1cc(O)ccc1O [2,5-Dihydroxyacetophenone] | 0 | – |
| COc1ccc2cc3[n+](cc2c1OC)CCc1cc(O)c(O)cc1-3 [Demethyleneberberine] | -1 | – |
| O=C1C[C@@H](c2cc(O)c(O)c(O[C@@H]3O[C@H](CO)[C@@H](O)[C@H](O)[C@H]3O)c2)Oc2cc(O)cc(O)c21 [Plantagoside] | 0.6 | – |

An excerpt from above in order of heavy-atom count, low to high:

| SMILES | OC43 Inhibition rate [%] | OC43 Inhibition rate (OC43 Inhibition rate, 24 h) [%] |
| --- | --- | --- |
| COc1cc(OC)c(C(=O)O)cc1OC [2,4,5-Trimethoxybenzoic acid] | -0.1 | – |
| Nc1nc2c([nH]c(=O)n2[C@H]2C[C@H](O)[C@@H](CO)O2)c(=O)[nH]1 [8-Hydroxy-2'-deoxyguanosine] | -0.5 | – |
| COc1cc(COC(=O)CCCC/C=C/C(C)C)ccc1O [Capsiate] | -0.6 | – |
| C=C1CC[C@@H]2[C@](C)(CO)[C@H](O)CC[C@@]2(C)[C@@H]1/C=C/C1=CCOC1=O [14-Deoxy-11,12-didehydroandrographolide] | -1.3 | – |

The list goes on.

| SMILES | OC43 Inhibition rate [%] | OC43 Inhibition rate (OC43 Inhibition rate, 24 h) [%] |
| --- | --- | --- |
| C[C@@H]1CC[C@H]2[C@@H](C)C(=O)O[C@@H]3O[C@@]4(C)CC[C@@H]1[C@]32OO4 [Artemisinin] | 0.2 | – |
| O=C1O[C@H]2[C@@H]3OC(=O)c4cc(O)c(O)c(O)c4-c4c(cc(O)c(O)c4O)C(=O)OC[C@H]2O[C@@H](OC(=O)c2cc(O)c(O)c(O)c2)[C@@H]3OC(=O)c2cc(O)c(O)c3c2[C@@H]2C1=CC(=O)[C@](O)(O3)C2(O)O [Geraniin] | 1.3 | – |
| COc1cccc(OC)c1C(=O)O [2,6-Dimethoxybenzoic acid] | 0.1 | – |
| COc1cc(-c2[o+]c3cc(O)cc(O)c3cc2O)cc(O)c1O [Petunidin (chloride)] | 1.2 | – |
| COc1cc(CCC(=O)CC(O)CCc2ccc(O)c(OC)c2)ccc1O (centres unmarked) [Hexahydrocurcumin] | 6.3 | – |
| CO[C@H]1/C=C/O[C@@]2(C)Oc3c(C)c(O)c4c(c3C2=O)C(=O)C=C(NC(=O)/C(C)=C\C=C\[C@H](C)[C@H](O)[C@@H](C)[C@@H](O)[C@@H](C)[C@H](OC(C)=O)[C@@H]1C)C4=O [Rifamycin S] | 3.2 | – |
| O=C(O)[C@H](O)[C@@H](O)CO [Calcium L-Threonate] | 1.3 | – |
| CO[C@H]1C[C@@H]2CC[C@@H](C)[C@@](O)(O2)C(=O)C(=O)N2CCCC[C@H]2C(=O)O[C@H]([C@H](C)C[C@@H]2CC[C@@H](O)[C@H](OC)C2)CC(=O)[C@H](C)/C=C(\C)[C@@H](O)[C@@H](OC)C(=O)[C@H](C)C[C@H](C)/C=C/C=C/C=C/1C [Rapamycin] | -0.1 | – |
| COc1ccc(-c2oc3c(CC=C(C)C)c(O[C@@H]4O[C@H](CO)[C@@H](O)[C@H](O)[C@H]4O)cc(O)c3c(=O)c2O[C@@H]2O[C@@H](C)[C@H](O)[C@@H](O[C@@H]3O[C@H](CO)[C@@H](O)[C@H](O)[C@H]3O)[C@H]2O)cc1 [Epimedin A1] | 3.6 | – |
| CC(C)C[C@H](NC(=O)[C@@H](O)[C@H](N)Cc1ccccc1)C(=O)O [Bestatin (hydrochloride)] | – | 0.4 |
| COc1cc(OC)c2c(=O)cc(-c3ccccc3)oc2c1 [5,7-Dimethoxyflavone] | 1 | – |
| C=C(C)[C@H](CC=C(C)C)Cc1c(O)cc(O)c2c1O[C@H](c1ccccc1O)CC2=O [Kushenol A] | 7.8 | – |
| CC(=O)N[C@@H](Cc1c[nH]c2ccccc12)C(=O)O [N-Acetyl-L-tryptophan] | 6.6 | – |
| COc1ccc(-c2cc(=O)c3c(O)cc(O[C@@H]4O[C@H](CO)[C@@H](O)[C@H](O)[C@H]4O[C@@H]4O[C@@H](C)[C@H](O)[C@@H](O)[C@H]4O)cc3o2)cc1O [Neodiosmin] | -0.3 | – |
| CC(C)=CC(=O)O [3-Methylbut-2-enoic acid] | 0.5 | – |
| CC(C)=CCc1c(O)cc2oc3cc(O)c(O)c(CCC(C)(C)O)c3c(=O)c2c1O [Garcinone C] | -1.1 | – |
| C/C=C(\CC[C@@H](C)[C@H]1CC[C@H]2[C@@H]3CC=C4C[C@@H](O)CC[C@]4(C)[C@H]3CC[C@]12C)C(C)C [Fucosterol] | -0.6 | – |
| N[C@@H](CCO)C(=O)O [L-Homoserine] | -0.7 | – |
| C=CC(C)(O)CCC=C(C)CCC=C(C)C (mixture of isomers) [Nerolidol] | 3 | – |
| O=C(O)[C@H]1CCCN1 [(R)-pyrrolidine-2-carboxylic acid] | -5 | – |
